Reference: patent publication US8697877B2, “Oxyindole derivatives with motilin receptor agonistic activity” (RaQualia Pharma Inc., priority 2009, dated 2014)
Where two headings read alike, the source gives them in different places. Some of these results come from one statement about several compounds together. For some assays here: For at least one compound, name, drawing or mass did not settle the structure.

Sequences of proteins named here, by UniProt entry; tags and fusion partners are left off. A change or cut given only in a name is not applied to a line headed by its entry.
UniProt O43193: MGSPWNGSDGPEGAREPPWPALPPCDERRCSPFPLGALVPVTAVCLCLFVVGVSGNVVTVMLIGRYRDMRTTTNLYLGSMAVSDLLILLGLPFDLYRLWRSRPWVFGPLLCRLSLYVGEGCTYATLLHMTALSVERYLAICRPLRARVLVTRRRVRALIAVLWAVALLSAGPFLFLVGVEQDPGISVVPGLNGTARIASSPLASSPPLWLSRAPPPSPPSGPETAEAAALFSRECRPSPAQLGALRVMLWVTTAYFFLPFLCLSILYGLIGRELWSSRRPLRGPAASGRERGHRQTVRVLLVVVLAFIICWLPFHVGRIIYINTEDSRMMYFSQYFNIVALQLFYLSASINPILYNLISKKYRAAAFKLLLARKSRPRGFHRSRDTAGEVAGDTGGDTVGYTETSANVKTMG

Key:
[1] = PAMPA (Parallel Artificial Membrane Permeation Assay); type: in vitro ADME; details: artificial membrane 4% phosphatidylcholine and 1% stearic acid in dodecane, pH 6.5, 30° C., 2.5 hours
[2] = target: T1, human motilin receptor (GPR38) (Homo sapiens, UniProt O43193); assay: GPR38 (Motilin Receptor) Functional Assay, NFAT-beta-lactamase reporter in CHO-K1 cells; type: cell-based
T1 construct: expressed in transfected cells; host or cells: CHO-K1
Experimental: The potencies and efficacies of the compounds of this invention for GPR38 can be determined by reporter assay performed on the human cloned receptor as described herein.
GPR38 (Motilin Receptor) Functional Assay
A CHO-K1 cell line stably transfected NFAT-beta-lactamase reporter and human motilin receptor gene was used. The cells were cultured in culture medium (Dulbecco's modified eagle medium containing 10% fetal bovine serum, 1 mM sodium pyruvate, 0.1 mM MEM nonessential amino acids, 25 mM HEPES buffer, 50 units/mL penicillin, 50 microg/mL streptomycin, 100 microg/mL zeocin, and 500 microg/mL G418). The cells were harvested with 0.05% trypsin EDTA and centrifuged. The cell pellets were resuspended in the culture medium and plated into a black/clear bottom 384-well plate at a density of 8000 cells per well, then incubated at 37° C. with 5% CO2 for over night (about 20 hours). On the day of assay, the culture medium was aspirated and 20 microL of assay medium (Dulbecco's modified eagle medium containing 100 units/mL penicillin and 100 microg/mL streptomycin) was added to each well, then the cell plates were placed in incubator at 37° C. with 5% CO2 for 1.5 hours. Compounds were prepared in 100% DMSO and these were diluted to 5× of final concentration with assay buffer (Hanks balanced salt solution, 20 mM HEPES, and 0.1% BSA), then dispensed into 384-well plate (5 microL/well). After incubation at 37° C. with 5% CO2 for 4.5 hours, CCF4-AM loading solution (Invitrogen Corp.) was added to each well. After incubation for 2 hours at room temperature, fluorescence intensities were measured by using plate reader FDSS (Hamamatsu Photonics K. K.) with excitation 400 nm, emission 465 nm/540 nm. Agonistic activity (EC50) was calculated from the sigmoidal dose-response curve using GraphPad Prism software (GraphPad Software, Inc.).

[3] = read-out: EC50 (agonistic activity) in the functional assay; CHO-K1 cell line stably transfected with NFAT-beta-lactamase reporter and human motilin receptor gene

| SMILES | effective permeability value (Pe) [1] | EC50 [2, 3] | EC50 ([2]; CHO-K1 cell line stably transfected with NFAT-beta-lactamase reporter and human motilin receptor gene; read-out: EC50 (agonistic activity) in the functional assay) |
| --- | --- | --- | --- |
| CC1(C)C(=O)N(C2CCN(C(=O)[C@H](CCc3ccccc3)NC(=O)[C@@H]3CCCNC3)CC2)c2ccccc21 [Example 1, (R)—N—((S)-1-(4-(3,3-dimethyl-2-oxoindolin-1-yl)piperidin-1-yl)-1-oxo-4-phenylbutan-2-yl)piperidine-3-carboxamide] | >= 2.0 cm×10^−6/sec | ≤ 100 nM |  |
| CC1(C)C(=O)N(C2CCN(C(=O)[C@H](CCc3ccccc3)NC(=O)[C@@H](N)C(C)(C)C)CC2)c2ccccc21 [Example 3, (S)-2-amino-N-((S)-1-(4-(3,3-dimethyl-2-oxoindolin-1-yl)piperidin-1-yl)-1-oxo-4-phenylbutan-2-yl)-3,3-dimethylbutanamide] | >= 2.0 cm×10^−6/sec | ≤ 100 nM |  |
| CC1(C)C(=O)N(C2CCN(C(=O)[C@H](CCc3ccccc3)NC(=O)CC3(N)CCC3)CC2)c2ccccc21 [Example 6, (S)-2-(1-aminocyclobutyl)-N-(1-(4-(3,3-dimethyl-2-oxoindolin-1-yl)piperidin-1-yl)-1-oxo-4-phenylbutan-2-yl)acetamide] | >= 2.0 cm×10^−6/sec | ≤ 100 nM |  |
| CC1(C)C(=O)N(C2CCN(C(=O)[C@H](CCc3ccccc3)NC(=O)C3(CN)CC3)CC2)c2ccccc21 [Example 7, (S)-1-(aminomethyl)-N-(1-(4-(3,3-dimethyl-2-oxoindolin-1-yl)piperidin-1-yl)-1-oxo-4-phenylbutan-2-yl)cyclopropanecarboxamide] | >= 2.0 cm×10^−6/sec | ≤ 100 nM |  |
| CNC(C)(C)CC(=O)N[C@@H](CCc1ccccc1)C(=O)N1CCC(N2C(=O)C(C)(C)c3ccccc32)CC1 [Example 13, (S)-N-(1-(4-(3,3-dimethyl-2-oxoindolin-1-yl)piperidln-1-yl)-1-oxo-4-phenylbutan-2-yl)-3-methyl-3-(methylamino) butanamide] | >= 2.0 cm×10^−6/sec | ≤ 100 nM |  |
| CC1(C)C(=O)N(C2CCN(C(=O)[C@H](CCc3ccccc3)NC(=O)CN3CCCC3)CC2)c2ccccc21 [Example 17, (S)—N-(1-(4-(3,3-dimethyl-2-oxoindolin-1-yl)piperidin-1-yl)-1-oxo-4-phenylbutan-2-yl)-2-(pyrrolidin-1-yl)acetamide] | >= 2.0 cm×10^−6/sec | ≤ 100 nM |  |
| CN1CCC[C@@H](C(=O)N[C@@H](CCc2ccccc2)C(=O)N2CCC(N3C(=O)C(C)(C)c4ccccc43)CC2)C1 [Example 20, (R)—N—((S)-1-(4-(3,3-dimethyl-2-oxoindolin-1-yl)piperidin-1-yl)-1-oxo-4-phenylbutan-2-yl)-1-methylpiperidine-3-carboxamide] | >= 2.0 cm×10^−6/sec | ≤ 100 nM |  |
| CN[C@@H]1CC[C@H](C(=O)N[C@@H](Cc2ccccc2C(F)(F)F)C(=O)N2CCC(N3C(=O)C(C)(C)c4ccccc43)CC2)C1 [Example 22, (1S,3R)-N-((S)-1-(4-(3,3-dimethyl-2-oxoindolin-1-yl)piperidin-1-yl)-1-oxo-3-(2-(trifluoromethyl)phenyl)propan-2-yl)-3-(methylamino)cyclopentane-carboxamide] | >= 2.0 cm×10^−6/sec | ≤ 100 nM |  |
| CN[C@@H]1CC[C@H](C(=O)N[C@@H](CC2CCCCC2)C(=O)N2CCC(N3C(=O)C(C)(C)c4ccccc43)CC2)C1 [Example 23, (1S,3R)-N-((S)-3-cyclohexyl-1-(4-(3,3-dimethyl-2-oxoindolin-1-yl)piperidin-1-yl)-1-oxopropan-2-yl)-3-(methyl-amino)cyclopentanecarboxamide] | >= 2.0 cm×10^−6/sec | ≤ 100 nM |  |
| CN[C@@H]1CC[C@H](C(=O)N[C@@H](Cc2cccc(Cl)c2)C(=O)N2CCC(N3C(=O)C(C)(C)c4ccccc43)CC2)C1 [Example 29, (1S,3R)-N-((S)-3-(3-chlorophenyl)-1-(4-(3,3-dimethyl-2-oxoindolin-1-yl)piperidin-1-yl)-1-oxopropan-2-yl)-3-(methylamino)cyclopentane-carboxamide] | >= 2.0 cm×10^−6/sec | ≤ 100 nM |  |
| CN[C@@H]1CC[C@H](C(=O)N[C@@H](Cc2cccc(C(F)(F)F)c2)C(=O)N2CCC(N3C(=O)C(C)(C)c4ccccc43)CC2)C1 [Example 35, (1S,3R)-N-((S)-1-(4-(3,3-dimethyl-2-oxoindolin-1-yl)piperidin-1-yl)-1-oxo-3-(3-(trifluoromethyl)phenyl)propan-2-yl)-3-(methylamino)cyclo-pentanecarboxamide] | >= 2.0 cm×10^−6/sec | ≤ 100 nM |  |
| CN[C@@H]1CC[C@H](C(=O)N[C@@H](Cc2ccc(C(F)(F)F)cc2)C(=O)N2CCC(N3C(=O)C(C)(C)c4ccccc43)CC2)C1 [Example 36, (1S,3R)-N-((S)-1-(4-(3,3-dimethyl-2-oxoindolin-1-yl)piperidin-1-yl)-1-oxo-3-(4-(trifluoromethyl)phenyl)propan-2-yl)-3-(methylamino)cyclo-pentanecarboxamide] | >= 2.0 cm×10^−6/sec | ≤ 100 nM |  |
| CN[C@@H]1CC[C@H](C(=O)N[C@@H](COc2ccccc2Cl)C(=O)N2CCC(N3C(=O)C(C)(C)c4ccccc43)CC2)C1 [Example 39, (1S,3R)-N-((S)-3-(2-chlorophenoxy)-1-(4-(3,3-dimethyl-2-oxoindolin-1-yl)piperidin-1-yl)-1-oxopropan-2-yl)-3-(methylamino)cyclopentanecarboxamide] | >= 2.0 cm×10^−6/sec | ≤ 100 nM |  |
| CC1(C)C(=O)N(C2CCN(C(=O)[C@H](CCc3ccccc3)NC(=O)NC[C@@H]3CCCN3)CC2)c2ccc(F)cc21 [Example 71, 1-((S)-1-(4-(5-fluoro-3,3-dimethyl-2-oxoindolin-1-yl)piperldin-1-yl)-1-oxo-4-phenylbutan-2-yl)-3-((S)-pyrrolidin-2-ylmethyl)urea] |  | ≤ 100 nM |  |
| CC1(NC(=O)N[C@@H](CCc2ccccc2)C(=O)N2CCC(N3C(=O)C(C)(C)c4cc(F)ccc43)CC2)CCNCC1 [Example 72] |  | ≤ 100 nM |  |
| CC1(C)C(=O)N(C2CCN(C(=O)[C@H](Cc3ccccc3C(F)(F)F)NC(=O)C3CCNCC3)CC2)c2ccccc21 [Example 78, (S)-N-(1-(4-(3,3-dimethyl-2-oxoindolin-1-yl)piperidin-1-yl)-1-oxo-3-(2-(trifluoro-methyl)phenyl)propan-2-yl)piperidine-4-carboxamide] |  | ≤ 100 nM |  |
| CC1(C)C(=O)N(C2CCN(C(=O)[C@H](Cc3ccccc3Cl)NC(=O)C3CCNCC3)CC2)c2ccccc21 [Example 79, (S)-N-(3-(2-chlorophenyl)-1-(4-(3,3-dimethyl-2-oxo-indolin-1-yl)piperidin-1-yl)-1-oxopropan-2-yl) piperidine-4-carboxamide] |  | ≤ 100 nM |  |
| CC1(C)C(=O)N(C2CCN(C(=O)[C@H](Cc3ccccc3)NC(=O)[C@@H]3CCCNC3)CC2)c2ccccc21 [Example 82, (R)-N-((S)-1-(4-(3,3-dimethyl-2-oxoindolin-1-yl)piperidin-1-yl)-1-oxo-3-phenylpropan-2-yl) piperidine-3-carboxamide] |  | ≤ 100 nM |  |
| CC1(C)C(=O)N(C2CCN(C(=O)[C@H](Cc3ccccc3F)NC(=O)[C@@H]3CCCNC3)CC2)c2ccccc21 [Example 83, (R)-N-((S)-1-(4-(3,3-dimethyl-2-oxoindolin-1-yl)piperidin-1-yl)-3-(2-fluorophenyl)-1-oxo-propan-2-yl)piperidine-3-carboxamide] |  | ≤ 100 nM |  |
| CC1(C)C(=O)N(C2CCN(C(=O)[C@H](Cc3ccccc3Cl)NC(=O)[C@@H]3CCCNC3)CC2)c2ccccc21 [Example 86, (R)-N-((S)-3-(2-chloro-phenyl)-1-(4-(3,3-dimethyl-2-oxoindolin-1-yl)piperidin-1-yl)-1-oxo-propan-2-yl)piperidine-3-carboxamide] |  | ≤ 100 nM |  |
| CC1(C)C(=O)N(C2CCN(C(=O)[C@H](Cc3ccc(Cl)cc3)NC(=O)[C@@H]3CCCNC3)CC2)c2ccccc21 [Example 87, (R)-N-((S)-3-(4-chloro-phenyl)-1-(4-(3,3-dimethyl-2-oxoindolin-1-yl)piperidin-1-yl)-1-oxopropan-2-yl)piperidine-3-carboxamide] |  | ≤ 100 nM |  |
| CN[C@H]1CCN(C(=O)N[C@@H](Cc2ccccc2F)C(=O)N2CCC(N3C(=O)C(C)(C)c4ccccc43)CC2)C1 [Example 90, (S)-N-((S)-1-(4-(3,3-dimethyl-2-oxoindolin-1-yl)piperidin-1-yl)-3-(2-fluorophenyl)-1-oxopropan-2-yl)-3-(methylamino) pyrrolidine-1-caboxamide] |  |  | ≤ 100 nM |
